Record: PubChem BioAssay AID1259254 (NCATS, 2017)

Assay: 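Genome-wide screen for genes that prevent DNA re-replication in cancer cells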 (primary screen)
System: human HCT116 colorectal cancer cells
Reagents: single siRNA against human genes
Duration: 3 days
Measured: 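Imaged Hoechst DNA stain sorts each cell into a cycle phase by DNA amount; per plate, G2 fraction set to 0% for non-targeting and 100% for GMNN siRNA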
Direction: G2 robust z-score: higher = more G2 cells, more excess DNA replication
Rule for the call: 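An siRNA counts as active if its G2 robust z-score lies at least 5 MADs above the screen median; here such calls match roughly 38% of GMNN control or more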
The whole screen tested about 59,000 reagents; this is a part drawn at random. About 1,550 of all reagents (2.6%) were called active. 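G2 share is only a proxy for re-replication; each gene was hit by three separate siRNAs, and active genes were retested.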 Reagents against one gene are numbered here. Further read-outs or replicates are left out here. Not given: the amount of reagent.

G2 robust z-score, by gene and reagent
SLC4A3: #1 -1.36 inactive; #2 0.943 inactive; #3 1.31 inactive
PCDHGC5 (protocadherin gamma subfamily C, 5): #1 -0.624 inactive; #2 -0.83 inactive; #3 1.19 inactive
SYVN1 (synoviolin 1): #1 3.8 inactive; #2 1.49 inactive; #3 -0.325 inactive
RINT1 (RAD50 interactor 1): #1 0.329 inactive; #2 -0.0156 inactive; #3 0.59 inactive
FAM217B (family with sequence similarity 217 member B): #1 -0.901 inactive; #2 0.473 inactive; #3 -0.198 inactive
NMU (neuromedin U): #1 1.72 inactive; #2 0.391 inactive; #3 0.754 inactive
TIPE1 (TNF alpha induced protein 8 like 1): #1 0.781 inactive; #2 0.409 inactive; #3 -0.619 inactive
GDPD3 (glycerophosphodiester phosphodiesterase domain containing 3): #1 4.9 inactive; #2 -0.135 inactive; #3 4.57 inactive
CFI (complement factor I): #1 0.216 inactive; #2 0.732 inactive; #3 -0.488 inactive
TMEM233 (transmembrane protein 233): #1 0.544 inactive; #2 1.97 inactive; #3 0.0792 inactive
RBM5 (RNA binding motif protein 5): #1 -0.418 inactive; #2 0.611 inactive; #3 -0.267 inactive
PCNX4 (pecanex 4): #1 0.849 inactive; #2 -0.0687 inactive; #3 3.16 inactive
SERP1 (stress associated endoplasmic reticulum protein 1): #1 -0.441 inactive; #2 4.33 inactive; #3 -0.305 inactive
RAB3A (RAB3A, member RAS oncogene family): #1 -0.36 inactive; #2 -0.176 inactive; #3 -0.264 inactive
BPHL (biphenyl hydrolase like): #1 -1.02 inactive; #2 5.07 active; #3 -1.17 inactive
RPL22L1 (ribosomal protein L22 like 1): #1 0.397 inactive; #2 3.26 inactive; #3 5.9 active
PRCP (prolylcarboxypeptidase): #1 1.53 inactive; #2 0.298 inactive; #3 -0.599 inactive
PCDHGA3 (protocadherin gamma subfamily A, 3): #1 8.33 active; #2 -1.46 inactive; #3 1.64 inactive
YPEL2 (yippee like 2): #1 -0.107 inactive; #2 -0.816 inactive; #3 1.51 inactive
PAICS: #1 1.67 inactive; #2 -0.333 inactive; #3 -1 inactive; #4 1.38 inactive; #5 1.71 inactive; #6 0.109 inactive
OPCML (opioid binding protein/cell adhesion molecule like): #1 1.41 inactive; #2 0.336 inactive; #3 0.719 inactive
BPTF (bromodomain PHD finger transcription factor): #1 6.25 active; #2 2.1 inactive; #3 1.93 inactive
